# Results from the supplement of paper PMC3334620.
# Over roughly 33,000 sequences, “E-score (-0.5 to 0.5)” has its median near -0.0014; the highest 2% begin near 0.25. The list shows a part of the results.
# Target: T1, Cad1 (UniProt P24813)
# T1 sequence: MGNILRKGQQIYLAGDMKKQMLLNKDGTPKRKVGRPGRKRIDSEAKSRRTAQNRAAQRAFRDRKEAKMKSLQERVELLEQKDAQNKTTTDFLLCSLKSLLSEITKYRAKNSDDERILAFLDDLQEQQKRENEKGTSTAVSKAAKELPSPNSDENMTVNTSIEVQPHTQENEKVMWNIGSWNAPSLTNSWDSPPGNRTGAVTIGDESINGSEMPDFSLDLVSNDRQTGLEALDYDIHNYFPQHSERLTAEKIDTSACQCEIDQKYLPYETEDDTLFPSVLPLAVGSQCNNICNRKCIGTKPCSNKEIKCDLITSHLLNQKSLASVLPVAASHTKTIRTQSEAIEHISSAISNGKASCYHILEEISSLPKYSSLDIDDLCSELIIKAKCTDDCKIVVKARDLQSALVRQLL
# Test: PBM E-score (8-mer binding enrichment) (E-score (-0.5 to 0.5)); higher = stronger / more preferred TF binding
# Details: protein concentration: 100 nM; construct: GST-full length
# Outline: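 For each ungapped eight-base word taken together with its reverse complement, the Universal PBM Analysis Suite assigned an E-score. Binding data came from GST-tagged yeast transcription factors, applied at about 100-200 nM, on universal all-10-mer Agilent arrays made double-stranded by primer extension. Fluorescent anti-GST marked bound protein, and scans were normalised with masliner.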
row,Sequence,PBM E-score
1,ATTTGCAC,0.0893
2,CTGTCGCA,-0.192
3,ATAACGGC,0.131
4,ACCAGAAT,-0.0108
5,ATTGCTTA,0.176
6,ACACATCG,0.0172
7,CATAAACG,0.0558
8,GTAGCTTA,0.235
9,CATCCTCC,-0.313
10,AGAACTTG,0.157
11,AATGGCTG,-0.0676
12,CGCGGCCA,-0.0454
13,CCGCATTC,0.0508
14,ACCACTCA,-0.0789
15,CCTCGCCC,0.0207
16,CAACCCTA,-0.0439
17,ATAGTCGC,0.00692
18,CGTGGCTC,-0.351
19,ATGTGAGA,0.0169
20,ATTACTCG,0.221
21,ATACTGTG,-0.0583
22,ATCATTAC,0.206
23,CTTCTATC,-0.0429
24,CCGGCCTA,-0.128
25,AAGCCAGC,0.0299

row,Sequence,PBM E-score
1,CAGCACAA,0.128
2,GTTGATTA,0.228
3,CTAATCAG,0.227
4,ACGGGGCT,-0.188
5,GAGGTAAC,-0.0332
6,CCGCCATC,-0.0295
7,TATCTACA,0.173
8,ACAAGAAC,0.251
9,CGCCCAAA,0.062
10,CAACCCGC,0.0759
11,AACGACGC,-0.0374
12,ACTCTCCA,-0.0537
13,ATCCCTTC,-0.138
14,GCCAGTGA,-0.112
15,CGCTGAAC,0.0859
16,AACGCCTG,0.0294
17,CACTTACG,0.0325
18,ACAATATG,0.193
19,CCATAAAA,0.0981
20,ACATCACC,-0.108
21,TCACAGAA,0.0412
22,GACAGCCA,0.012
23,CTTGAACC,0.0288
24,AATATATT,0.322
25,ACAAAATA,0.145

# As entered above:
# Under PBM E-score, AATATATT is entered as 0.322
# Under PBM E-score, ATACTGTG is entered as -0.0583
# Under PBM E-score, ACAAAATA is entered as 0.145
# Under PBM E-score, CATCCTCC is entered as -0.313

# The list continues.

row,Sequence,PBM E-score
1,ACTCTAAC,-0.0544
2,GATGAATC,0.149
3,CGTGTAGC,-0.00953
4,CCGAACAG,0.0286
5,CTCGCGGC,0.0515
6,AGCCGCCC,-0.0349
7,CTATACTC,-0.084
8,AGTGAGTG,0.0185
9,CGATTCCC,0.0953
10,AATTCTTG,0.108
11,AGTCGCAC,-0.27
12,AACCCGAT,0.115
13,CAGGGTAC,-0.0335
14,CAGCCGGC,0.132
15,CCTGACCC,-0.152
16,CAGCGCTA,0.157
17,TACGGTAA,0.158
18,CTAACCAA,0.0815
19,GGGAGTGA,-0.00669
20,AGAAGGCT,-0.299
21,ATAAAGTC,-0.0142
22,AGGTTATA,0.0216
23,CCTCGAAG,-0.0407
24,ATACTGAT,0.238
25,GCTGAACA,0.068

row,Sequence,PBM E-score
1,CCGTAGTA,-0.0697
2,GGCTTCAA,-0.139
3,AGCTTTGA,0.0761
4,CGGAAGTC,0.052
5,ACCCGGCC,-0.195
6,AAAGAGTA,-0.122
7,CTTTGTGA,-0.0554
8,CCTTCTCA,-0.109
9,AGGCAACG,0.0208
10,GATTGGTA,0.196
11,CCTGAAAG,0.0786
12,GACCACAC,-0.0773
13,GACCCCTC,-0.237
14,GGCCCTAC,-0.191
15,GCGCGCGC,0.417
16,AGGGTGTA,-0.0858
17,AGGCTACT,-0.196
18,GATTCACC,-0.0618
19,GTCGACCA,0.0522
20,AGCGCACC,0.0352
21,ACGGTCGC,-0.0822
22,AATGTGAT,0.127
23,GTCATGAA,0.0483
24,AAGATCGA,0.144
25,CTCGTCCA,0.072

row,Sequence,PBM E-score
1,ATGTCGAC,0.276
2,GCCTCGCC,-0.183
3,AAATGAGG,-0.0935
4,ACCTTTAA,-0.0262
5,GTATATAC,-0.0771
6,AAACTCCG,0.174
7,CATTAAGC,0.0681
8,CTGTCATC,0.135
9,TCGACGCA,0.0318
10,GTAGTCAA,0.0209
11,AAGTATGA,-0.00011
12,AAGTGTTC,0.16
13,CGGGAACC,-0.101
14,GTGTAACA,-0.0208
15,TCGTAAGA,-0.109
16,AAGAGAAT,0.0911
17,ATTGCTAC,0.0731
18,CCGAACAC,0.103
19,ACAAGGTA,0.0279
20,AGTTAAAA,0.14
21,GCCCCTAC,-0.135
22,GGATAGCC,0.0232
23,AATAGCGC,0.269
24,CTCCAGCA,-0.186
25,ATGACCAA,0.142

row,Sequence,PBM E-score
1,CTCTGAGC,-0.0187
2,AAAGGACC,-0.287
3,AACACTCG,0.16
4,GGTCCACA,-0.144
5,CTACTGGC,-0.187
6,CTGGCCCC,-0.192
7,ACGACACG,0.133
8,GTAACCCA,0.0628
9,AGACTTAG,-0.119
10,TATCCCAA,-0.0435
11,ACGTTACG,0.094
12,TACATTGA,0.0651
13,TATGAGGA,-0.0778
14,AGTTCGGC,-0.117
15,ACTAAGAA,0.0946
16,AGGAACAA,0.00382
17,ACGCTTAC,0.126
18,ACGAGTCC,-0.109
19,GGCCATAC,0.0542
20,GGACCAAA,0.0062
21,CCCACTCA,-0.193
22,CATCGTAG,-0.127
23,CCTAGTTA,0.0353
24,AGGTATCA,-0.164
25,ATCTATCC,0.0363

row,Sequence,PBM E-score
1,CATATCAC,0.0366
2,ATTGTAGC,0.00903
3,AAACCCCG,-0.0769
4,GATTACTA,0.392
5,CCGTACTA,0.0809
6,ACGAGCAT,-0.149
7,GCGGGCTA,0.0128
8,CCAGGGTA,-0.117
9,CACTAGCG,0.0044
10,ATTCTCGG,0.0797
11,CTTTGGAC,0.109
12,CAAGCCTA,0.0806
13,AGCTTTCG,-0.122
14,CAAGGTCC,-0.123
15,TCCCGAGA,-0.0956
16,GCACAAGA,0.0781
17,GTCACCAC,-0.0683
18,ACCAACGA,0.152
19,CCGCATGA,0.00982
20,CCCCGTCC,-0.319
21,AAGCCGCG,0.182
22,CAGCCAGG,0.0503
